# Percent effect of library compounds

Data taken from ChEMBL document CHEMBL3988442, “University of Dundee, Small-Polar-MMV Screening Library” (2021).

Results are given as percent effect.
How 0% and 100% were set is not recorded. Most values in the screen are low, and negative values occur.
Compounds were drawn at random from those tested, without regard to their results.
Two or more numbers in one place are separate tests of the same structure; such repeats can differ widely.

Mtb glucose medium: 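Phenotypic screen: M. tuberculosis growth, glucose 7H9 medium, 3 days; the read-out is not stated. Concentration: 50 µM. Direction is inferred from retests: higher values go with more growth inhibition. About 69,000 compounds were tested under these conditions; 1.1% (about 760) showed 50% or more at least once.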
Mtb cholesterol medium: 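Growth of Mycobacterium tuberculosis over 4 days (cholesterol / DPPC medium with tyloxapol); the read-out is not stated. Tested at 50 µM. Higher reads as more growth inhibition (inferred: compounds with an IC50 in retests scored well above the rest). Size under these conditions: about 69,000 compounds, about 370 of them at 50% or above in at least one test.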

compound,Mtb glucose medium,Mtb cholesterol medium
CCOC(C)c1noc(CN2CCCNCC2)n1 (centres undefined),7.856%,18.14%
CNS(=O)(=O)CC(=O)N1CCCc2cc(Br)ccc21,-34.99%,-28.96%
CC(NC(=O)Nc1ccc(-c2csnn2)cc1)C(=O)NC(C)(C)C (centres undefined),-5.778%,-19.63%
[H][C@]12CC[C@]([H])(CN(C(=O)CCn3cccn3)C1)N(Cc1ccccn1)C2=O,0.1168%,15.06%
OCC1(Cc2ccc(Cl)cc2)CCN(Cc2cccnc2)CC1,-14.98% and -0.3083%,13.02% and 2.368%
O=C(c1ccco1)N1CCC2(CCC(=O)N2Cc2ccccc2)CC1,-13.18%,3.202%
Cc1ccc(OCC(=O)N(C)Cc2ccc(F)cc2)cn1,2.799%,-24.74%
CC(C)c1nc2n(n1)CC(NCc1nc(C3CC3)no1)CC2 (centres undefined),-0.2552%,-13.18%
CSC(C)(C)CNC(=O)NCC[S+]([O-])c1ccccc1F (centres undefined),-13.37%,-5.199%
Cn1ccc(CNC(=O)N2CCCC3(C2)OCCO3)c1,-17.82% and -2.372%,-4.296%
Cc1ccsc1C(=O)N1CCCc2c(c(=O)n(C)n2C)C1,9.745% and -4.781%,-14.5% and 6.624%
Cc1cnn(CC2CCCN2Cc2cc(=O)n3c(C)csc3n2)c1 (centres undefined),0.964% and -12.95%,-9.987%
Cc1nc(O)c2nnn(C[C@H]3CCCN3C(=O)CCC3CCCC3)c2n1,-14.13%,-13.4%
COc1ncccc1C(=O)Nc1ccccc1-c1ccc(=O)n(C)n1,-6.458% and 12.94%,3.177%
CS(=O)(=O)CCC(=O)N1CCC(c2cccc(F)c2)C1 (centres undefined),20.86% and 21.58%,25.39%
O=C(O)C1(Oc2ccc(Cl)cc2)CCN(C2CCOCC2)CC1,-4.045%,-15.96%
O=C(CCNc1ncccn1)NCCc1ccc(Cl)s1,-8.896%,-10.6%
COc1cc2[nH]c(=O)c(CN3CCCC(CO)C3)cc2c(OC)c1OC (centres undefined),27.43%,6.19%
CCNC(=O)N(CCCO)C1CCCc2ccccc21 (centres undefined),0.7465%,-2.724% and -5.464%
[H][C@]12CCCCN1CCC[C@H]2CN(C)Cc1ccccc1-n1cccn1,-5.858% and -2.619%,4.895%
CN(C)c1ncc2c(n1)C1(CCN(Cc3ccccc3F)C1)COC2.O=C(O)C(F)(F)F (centres undefined),32.91% and 2.397%,10.01%
CCN(CC1CCOC1)C(=O)c1ccc(N(C)C)cc1F (centres undefined),-8.533%,9.085%
CC(=O)NC[C@@]1(COc2cnccn2)C[C@@H](O)[C@@H](O)C1.Cl,-4.241% and -10.17%,1.369%
O=C(CCc1ccc(=O)[nH]n1)N1CCCC(COc2ccc(F)cc2)C1 (centres undefined),4.541% and -5.16%,-5.926%
O=C(Cn1cc(-c2ccccc2)ncc1=O)Nc1nnc[nH]1,-1.404%,5.434%
CC(C)OCc1cccc(NC(=O)N2CCCC(CCC(N)=O)C2)c1 (centres undefined),13.89%,-1.114%
Cc1nc(C)c(CC(=O)NCc2ccccc2F)s1,4.887% and 11.84%,-11.47%
CCSc1ccc(C(=O)N2CC[C@](C)(O)[C@H](C)C2)s1,5.458% and 14.47%,4.787%
COc1ccc(NC(=O)NC(C)Cc2ccco2)cn1 (centres undefined),-16.2%,-14.05%
O=C1CNc2ncnc(NCc3cccs3)c2N1,4.381%,-16.08%
Cc1cccnc1CC(C)Nc1ncc(C)c(N(C)C)n1 (centres undefined),32%,-15.45% and -7.631%
CSC(C)C(=O)NS(=O)(=O)c1ccc(F)c(C(F)(F)F)c1 (centres undefined),-13.01% and 0.7645%,9.045%
COC1(CNC(=O)c2ccc3nsnc3c2)CCSC1 (centres undefined),4.815%,10.86%
O=C(O)C(F)(F)F.[H][C@@]12CN(Cc3cccs3)CCC[C@]1(C(=O)OCC)CN(C(C)=O)C2,4.057%,5.232%
O=C(NCc1ccc(Cl)cc1)[C@@H]1Cc2[nH]cnc2CN1CC1CC1,-1.741% and -6.843%,-3.661%
COc1ccc(NC(=O)c2ccc(CN3CC[C@H](O)C3)cc2)c(OC)n1,6.916% and -9.868%,6.679%
Cc1cccc(CC(=O)NC2CCN(C(=O)NC(C)(C)C)CC2)c1,-9.71% and -7.532%,1.884%
CCC(C(=O)N(C)C)N1CCC(c2nccn2Cc2cscn2)CC1 (centres undefined),-3.488%,-5.826% and -1.452%
CN1CCc2nc(C3CCCN(S(=O)(=O)c4ccccc4)C3)ncc2C1 (centres undefined),26%,6.98% and -6.425%
Cc1ccn(CCNC(=O)C2CCN(S(=O)(=O)c3ccc(F)cc3)C2)n1 (centres undefined),-40.98%,-19.55%
NC(=O)c1cnn2c(C3CCN(CCO)CC3)ccnc12,-6.693%,0.284% and -2.023%
CCCN(Cc1nc2ccccc2[nH]1)Cc1ccccc1OC,1.867%,10.26%
O=C(O)C(F)(F)F.[H][C@@]12CN(Cc3ccc(OC)cc3)C[C@]1([H])[C@@H]2CC(=O)N1CCCC1,-4.752%,7.645%
Cc1cc2c(=O)n(CCSc3cnn[nH]3)cnc2s1,6.289% and 19.76%,21.84%
COc1cnc(CSc2nnc(C)s2)cc1OCC(N)=O,18.32%,1.571%
O=C1CCCN1CCCC(=O)N1CCCC(c2ccn[nH]2)C1 (centres undefined),-1.452%,-3.833%
Cc1cc(N(C)C)nc(C2(C)CCCN2C(=O)c2ccn(C)n2)n1 (centres undefined),-0.3027%,-15.99%
CN1N=C(C(=O)N2CCCCC2)S(=O)(=O)c2ccccc21,5.038%,0.9315%

The last 4 entries again:

{"compound": "COc1cnc(CSc2nnc(C)s2)cc1OCC(N)=O", "Mtb glucose medium": 18.32, "Mtb cholesterol medium": 1.571}
{"compound": "O=C1CCCN1CCCC(=O)N1CCCC(c2ccn[nH]2)C1", "stereo": "centres undefined", "Mtb glucose medium": -1.452, "Mtb cholesterol medium": -3.833}
{"compound": "Cc1cc(N(C)C)nc(C2(C)CCCN2C(=O)c2ccn(C)n2)n1", "stereo": "centres undefined", "Mtb glucose medium": -0.3027, "Mtb cholesterol medium": -15.99}
{"compound": "CN1N=C(C(=O)N2CCCCC2)S(=O)(=O)c2ccccc21", "Mtb glucose medium": 5.038, "Mtb cholesterol medium": 0.9315}